Source: article PMC11237091
These are yes or no findings as the source states them, for the method shown. In cells and extracts the contact can be indirect. A result given as binding can be weak or reduced; the word gives no strength.

Sequences of proteins named here, by UniProt entry; tags and fusion partners are left off. A change or cut given only in a name is not applied to a line headed by its entry.
UniProt P67809: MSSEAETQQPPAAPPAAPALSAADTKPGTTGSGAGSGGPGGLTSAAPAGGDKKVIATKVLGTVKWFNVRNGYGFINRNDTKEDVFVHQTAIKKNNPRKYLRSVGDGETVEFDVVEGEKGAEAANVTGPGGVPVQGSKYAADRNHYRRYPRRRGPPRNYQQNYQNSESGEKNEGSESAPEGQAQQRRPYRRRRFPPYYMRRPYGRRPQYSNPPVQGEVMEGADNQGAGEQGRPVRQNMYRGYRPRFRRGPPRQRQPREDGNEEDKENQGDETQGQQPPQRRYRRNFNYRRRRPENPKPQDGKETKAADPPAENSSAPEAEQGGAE

Biological target: T1, SETD8 (lysine methyltransferase 5A) (human (endogenous in A673 and other ES cell lines)) (UniProt Q9NQR1)
T1 sequence: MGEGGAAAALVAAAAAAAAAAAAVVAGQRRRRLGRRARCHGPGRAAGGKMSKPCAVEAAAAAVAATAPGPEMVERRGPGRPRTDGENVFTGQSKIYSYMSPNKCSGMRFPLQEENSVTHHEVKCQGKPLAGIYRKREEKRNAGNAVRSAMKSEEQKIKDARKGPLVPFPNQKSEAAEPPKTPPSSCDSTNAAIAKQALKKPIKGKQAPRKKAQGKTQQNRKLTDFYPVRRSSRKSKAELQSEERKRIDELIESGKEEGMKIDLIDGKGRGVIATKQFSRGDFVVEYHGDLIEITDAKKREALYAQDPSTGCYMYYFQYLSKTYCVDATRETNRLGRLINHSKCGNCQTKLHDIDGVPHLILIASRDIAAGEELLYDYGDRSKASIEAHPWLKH
Assay: co-IP; ES cell lysates incubated with primary antibodies overnight, beads 4 h, Western blot; normal IgG as negative control; also after mutation of Ser102 of YBX1 and after SETD8 knockdown

binding: binds
Substance: YBX1 with mutated Ser102 (from UniProt P67809)
